Some entries share one result that the patent states for a list of compounds.
How the values were obtained:
Peronospora parasitica = assay: In vivo test on Peronospora parasitica (crucifer downy mildew), cabbage plants; settings: dose of 500 ppm, grading 5 days after contamination
Phytophthora infestans = format: in vivo; settings: preventive, tomato, 500 ppm of active ingredient, evaluated 7 days after inoculation
Leptosphaeria nodorum = assay: Leptosphaeria test (wheat)/preventive; format: in vivo; settings: preventive, 500 ppm of active ingredient, evaluated 7-9 days after inoculation
Pyricularia grisea = format: in vivo; settings: rice plants, dose of 500 ppm, grading 6 days after contamination
[1] = tested on: Mycosphaerella graminicola; assay: In vivo test on Mycosphaerella graminicola (wheat leaf spot); settings: wheat plants, dose of 500 ppm, grading 21 to 28 days after contamination
Plasmopara viticola = assay: Plasmopara test (grapevines)/preventive; format: in vivo; settings: preventive, dose of 100 ppm, evaluated 6 days after inoculation
Puccinia recondita = assay: Puccinia test (wheat)/preventive; format: in vivo; settings: preventive, 500 ppm of active ingredient, evaluated 7-9 days after inoculation

SMILES | protection (Peronospora parasitica) | efficacy (Phytophthora infestans) [%] | further results
CCOC(=O)C(C#N)=C(NC(C)C1CC1)c1ccc(C)nc1Cl (stereo not shown) [Compound 881] | at least 70% | ≥ 70 | –
CCOC(=O)C(C#N)=C(NC(C)C1(Cl)CC1)c1sc(C)nc1C(F)(F)F (stereo not shown) [Compound 772] | at least 70% | ≥ 70 | –
COC(=O)C(C#N)=C(NC(C)C(C)C)c1cccnc1Cl (stereo not shown) [Compound 931] | at least 70% | ≥ 70 | –
CCOC(=O)C(C#N)=C(NC1CC1C)c1cccnc1Cl (stereo not shown) [Compound 1067] | – | ≥ 70 | efficacy (Leptosphaeria nodorum): ≥ 70%
CCOC(=O)C(C#N)=C(Nc1ccccc1SC)c1ccc(C)nc1Cl [Compound 343] | at least 70% | ≥ 70 | –
CCOC(=O)C(C#N)=C(NC(C)c1nccs1)c1ccc(C)nc1Cl (stereo not shown) [Compound 24] | at least 70% | ≥ 70 | –
CCOC(=O)C(C#N)=C(NC(C)CBr)c1cccnc1Cl (stereo not shown) [Compound 767] | at least 70% | – | –
CCOC(=O)C(C#N)=C(NC(C)c1nc(C)cs1)c1sccc1C(F)(F)F (racemic) [Compound 174] | at least 70% | – | protection (% of efficacy) (Pyricularia grisea): at least 70%
CCOC(=O)C(C#N)=C(NC(C)CCl)c1cccnc1Cl (stereo not shown) [Compound 743] | at least 70% | – | –
C=CCOC(=O)C(C#N)=C(NC(C)C(C)C)c1cccnc1Cl (stereo not shown) [Compound 955] | at least 70% | – | protection (% of efficacy) (Pyricularia grisea): at least 70%
COC(=O)C(C#N)=C(NC(C)c1nccs1)c1cccnc1Br (stereo not shown) [Compound 21] | at least 70% | ≥ 70 | –
CCOC(=O)C(C#N)=C(NC(C)c1nccs1)c1sccc1Br (stereo not shown) [Compound 85] | at least 70% | ≥ 70 | –
CCOC(=O)C(C#N)=C(NC1(c2ccccn2)CC1)c1cccnc1Cl [Compound 284] | – | ≥ 70 | efficacy (Leptosphaeria nodorum): ≥ 70%
CCOC(=O)C(C#N)=C(Nc1ccccc1-c1ccccc1)c1cccnc1Cl [Compound 364] | – | – | protection (% of efficacy) [1]: at least 70%; protection (% of efficacy) (Pyricularia grisea): at least 70%
CCOC(=O)C(C#N)=C(NC1CC1C(F)(F)F)c1cccnc1Cl (stereo not shown) [Compound 1054] | – | ≥ 70 | efficacy (Leptosphaeria nodorum): ≥ 70%
CCOC(=O)C(C#N)=C(NC(C)CC)c1sccc1Br (stereo not shown) [Compound 827] | – | – | protection (% of efficacy) (Pyricularia grisea): at least 70%
CCOC(=O)C(C#N)=C(Nc1ccccc1SC)c1cccnc1Cl [Compound 341] | at least 70% | ≥ 70 | –
CCOC(=O)C(C#N)=C(NC(C(=O)OC)C(C)C)c1sccc1C(F)(F)F (racemic) [Compound 659] | – | – | protection (% of efficacy) (Pyricularia grisea): at least 70%
CCOC(=O)C(C#N)=C(NC(C)COS(C)(=O)=O)c1cccnc1Cl (stereo not shown) [Compound 1107] | at least 70% | – | –
COC(=O)C(C#N)=C(Nc1ccccc1SC)c1cccnc1Cl [Compound 334] | at least 70% | ≥ 70 | protection (efficacy) (Plasmopara viticola): at least 70%
CSCC(C)NC(=C(C#N)C(=O)OC(C)C)c1cccnc1Cl (stereo not shown) [Compound 597] | – | – | efficacy (Puccinia recondita): ≥ 70%

Source: patent publication US8476197B2, “Aminopropenoates as fungicides” (priority 2009, dated 2013)
